Earlier results on one compound are cited in patent US20040115236A1, “Devices and methods for management of inflammation” (priority 2000, published 2004).

The conditions of the data set: inhaled administration of 20 mg doses via Spinhaler; cited from earlier work.

With `O=C(O)c1cc(=O)c2c(OCC(O)COc3cccc4oc(C(=O)O)cc(=O)c34)cccc2o1` [sodium cromoglycate, Sodium cromoglycate], the peak plasma concentrations was 35 to 90 ng/mL.
